{"source": "paper PMC12242654", "about": "“Design, Synthesis, and In Vitro Evaluation of the Leishmanicidal Activity of New Aromatic Symmetrical 1,4-Disubstituted 1,2,3-Bistriazoles” (ACS Omega, 2025)", "test_system": "promastigote forms of L. amazonensis", "test": "Leishmanicidal activity against promastigote forms of L. amazonensis (resazurin)", "assay_type": "cell-based, Leishmania amazonensis", "settings": "CC50 murine macrophage / IC50 promastigote", "experimental": "Promastigotes of L. amazonensis (MHOM/BR/71973/M2269) were grown on 24-well plates in Schneider’s Drosophila medium (Sigma, USA) supplemented with 10.0% (v/v) heat-inactivated fetal bovine serum and 1.0% penicillin (10000 UI mL^–1)/streptomycin (10.0 mg mL^–1) (Sigma, USA). Cells were harvested in the log phase, suspended in a fresh medium, counted in Neubauer’s chamber, and adjusted to a concentration of 1 × 10^6 cells mL^–1 using 24-well plates. The compounds were added to promastigote cultures (1 × 10^6 cells mL^–1) in the range of 0.10–40.00 μg mL^–1, solubilized in dimethyl sulfoxide (DMSO) (0.6%, v/v in all wells), and incubated at 25 °C. After 72 h of incubation, resazurin was used to detect cellular metabolic activity for the determination of 50.0% inhibitory growth concentration (IC50-promastigote). All tests were performed in triplicate at three different times, and amphotericin B (Sigma) was used as the reference drug."}
{"molecule": "O=[N+]([O-])c1ccc(-c2cn(CC(O)Cn3cc(-c4ccc([N+](=O)[O-])cc4)nn3)nn2)cc1", "note": "[8b, 1,3-Bis(4-(4-nitrophenyl)-1H-1,2,3-triazol-1-yl)propan-2-ol]", "values": [{"measurement": "SI (murine) proma", "value": 6.29}]}
